Data: PubChem BioAssay AID2685 (National Center for Advancing Translational Sciences (NCATS), 2010)
Some of the results follow. These are further read-outs of the screen, such as a control signal, another cell line or another target. No call is given for them. The list favours compounds with an active or inconclusive main result. Potencies come from curve fits of mixed quality, noted in brackets.

Test: qHTS Assay for Lipid Storage Modulators in Drosophila S3 Cells;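 as to cell number change: cells counted by Cell Tracker Red CMTPX staining in the red channel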
Conditions: BODIPY lipid droplet fluorescence, 18-24 h; for cell number change: measured here: cell count max response, cells fed with added oleic acid
In short: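 Laser-scanning cytometry quantifies lipid droplet accumulation (500–530 nm total intensity; droplet/cell object ratio) in oleic acid-fed (400 uM added) Drosophila S3 cells treated with a concentration series. 20 uM Triacsin C defined 100% inhibition.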

[1] = measured here: lipid fluorescence (Fed channel) AC50, cells fed with added oleic acid
[2] = measured here: cell number channel AC50, cells fed with added oleic acid

SMILES	cell number change	AC50 [1]	AC50 [2]
Cc1[nH]c(=O)[nH]c(=O)c1CSc1nnc([C@H](CC(C)C)NC(=O)OC(C)(C)C)o1	4.45%	29.1 µM [rising, single point]	
Cc1ccc(/C=N\Nc2cn[nH]c(=O)c2Cl)cc1	15.3%	6.51 µM [rising, partial curve]	
Cc1ccccc1C(=O)Nc1ccccc1NC(=O)c1ccccc1Br	15.6%	29.1 µM [falling, single point]	
C#CCSc1ncc(S(=O)(=O)c2ccccc2)c(=O)[nH]1	-42.4%	1.64 µM [falling, partial curve]	29.1 µM [falling, single point]
COC(=O)c1ccc(/C=C/C(=O)c2cccc(OC)c2)cc1	-34.7%		29.1 µM [falling, single point]
COc1ccccc1NS(=O)(=O)c1ccc(O)c(C(=O)OCC(=O)Nc2ccccc2F)c1	16.4%		
CCOC(=O)N1CCN(C(=O)/C(=C/c2cccc3ccccc23)NC(=O)c2ccc(OC)cc2)CC1		0.58 µM [rising, single point]	
Cc1ccccc1N1C(=O)c2ccccc2N2C(=O)c3ccccc3C12 (stereo not drawn)	15.5%		
O=c1c2ccccc2oc2nc(-c3ccco3)n(CCc3ccccc3)c(=O)c12	-6.59%	6.51 µM [rising, single point]	
Cc1cc([N+](=O)[O-])nn1CCCC(=O)Nc1cccc(Cl)c1Cl	-1.36%		
CCOC(=O)Cn1nnnc1C(CC)N(Cc1cccs1)Cc1cc2cc(C)ccc2[nH]c1=O (stereo not drawn)	-26.3%	0.651 µM [rising, single point]	
COc1ccccc1-n1c(SCC(=O)Nc2ccc(NC(C)=O)cc2)nc2c([nH]c3ccccc32)c1=O	-0.495%	0.651 µM [falling, full curve]	
COc1ccccc1NS(=O)(=O)c1ccc2nc(CCl)[nH]c2c1		0.184 µM [falling, full curve]	
CN(C(=O)c1ccc(-c2nn(C)c(=O)c3ccccc23)cc1)C1CCCCC1	17.9%	29.1 µM [falling, single point]	
O=c1cc(-c2ccccc2)nc2n1Cc1ccccc1-2		0.291 µM [rising, full curve, poor fit]	0.184 µM [rising, full curve, poor fit]
C=C1CCN([C@@H](C)C(=O)OCc2cccc(C)c2)S(=O)(=O)c2ccccc21	13.2%	2.31 µM [rising, full curve, poor fit]	
O=C(Nc1ccc(Br)c2ccccc12)c1ccc2ccccc2c1O	-37.4%	2.06 µM [falling, full curve]	29.1 µM [falling, single point]
CCn1ncc([N+](=O)[O-])c1C(=O)Nc1ccc(C)c(C)c1	-6.08%	4.11 µM [rising, full curve]	
CCCc1nc2scc(-c3ccc(C)cc3)c2c(=O)n1N	7.72%	3.66 µM [rising, partial curve]	2.31 µM [rising, partial curve]
COc1ccc(OC)c(S(=O)(=O)NCc2cc(-c3ccccc3)no2)c1	3.47%		0.631 µM [falling, full curve, poor fit]

A different layout for some results above.

| SMILES | cell number change | AC50 [1] | AC50 [2] |
| --- | --- | --- | --- |
| Cc1[nH]c(=O)[nH]c(=O)c1CSc1nnc([C@H](CC(C)C)NC(=O)OC(C)(C)C)o1 | 4.45% | 29.1 µM [rising, single point] |  |
| Cc1ccc(/C=N\Nc2cn[nH]c(=O)c2Cl)cc1 | 15.3% | 6.51 µM [rising, partial curve] |  |
| COC(=O)c1ccc(/C=C/C(=O)c2cccc(OC)c2)cc1 | -34.7% |  | 29.1 µM [falling, single point] |
| COc1ccccc1NS(=O)(=O)c1ccc(O)c(C(=O)OCC(=O)Nc2ccccc2F)c1 | 16.4% |  |  |
| CCOC(=O)N1CCN(C(=O)/C(=C/c2cccc3ccccc23)NC(=O)c2ccc(OC)cc2)CC1 |  | 0.58 µM [rising, single point] |  |
| O=c1c2ccccc2oc2nc(-c3ccco3)n(CCc3ccccc3)c(=O)c12 | -6.59% | 6.51 µM [rising, single point] |  |
| CCOC(=O)Cn1nnnc1C(CC)N(Cc1cccs1)Cc1cc2cc(C)ccc2[nH]c1=O (stereo not drawn) | -26.3% | 0.651 µM [rising, single point] |  |
| COc1ccccc1-n1c(SCC(=O)Nc2ccc(NC(C)=O)cc2)nc2c([nH]c3ccccc32)c1=O | -0.495% | 0.651 µM [falling, full curve] |  |
| O=c1cc(-c2ccccc2)nc2n1Cc1ccccc1-2 |  | 0.291 µM [rising, full curve, poor fit] | 0.184 µM [rising, full curve, poor fit] |
| O=C(Nc1ccc(Br)c2ccccc12)c1ccc2ccccc2c1O | -37.4% | 2.06 µM [falling, full curve] | 29.1 µM [falling, single point] |
| CCn1ncc([N+](=O)[O-])c1C(=O)Nc1ccc(C)c(C)c1 | -6.08% | 4.11 µM [rising, full curve] |  |
| COc1ccc(OC)c(S(=O)(=O)NCc2cc(-c3ccccc3)no2)c1 | 3.47% |  | 0.631 µM [falling, full curve, poor fit] |

Going on with the list:

SMILES	cell number change	AC50 [1]	AC50 [2]
CCOC(=O)c1c(C)[nH]c(C)c1S(=O)(=O)NCCc1sccc1C	-32.8%	0.58 µM [falling, single point]	0.0326 µM [falling, full curve, poor fit]
CC(C(=O)N(C1CC1)C1(C(=O)Nc2ccccc2)CCCC1)N1C(=O)c2ccccc2C1=O (stereo not drawn)	16.2%		
Cc1noc(C)c1CSc1ncnc2ccccc12	6.63%	29.1 µM [rising, single point]	
CCOC(=O)c1c(C)oc2c1c(C=NCc1ccccn1)c(O)c1ccccc12	-2.9%		
C[C@@H](N)C(=O)NC[C@H]1CC[C@H](C(=O)N[C@@H](Cc2ccccc2)C(=O)O)CC1		2.91 µM [rising, single point]	6.51 µM [rising, partial curve, poor fit]
CON1C(=O)CN(C(C)=O)C1c1ccc(Cl)cc1Cl (stereo not drawn)	9.26%	29.1 µM [falling, partial curve]	
COC(=O)c1cc(NS(=O)(=O)c2ccc(N3CCOCC3)c(N)c2)cc(C(=O)OC)c1	9.2%	3.66 µM [rising, single point]	
Cn1c(=O)c2c(nc(-c3ccccc3)n2C)n(Cc2ccccc2)c1=O			1.84 µM [rising, partial curve, poor fit]
Nc1cc(S(=O)(=O)Nc2ccccc2Cl)ccc1N1CCCC1	-2.69%		
Cc1ccc(C(=O)NNC2=NCCC2)cc1	-33.2%	0.184 µM [falling, full curve]	0.00517 µM [falling, full curve]
C=CCNC(=S)NNC(=O)CSc1nc2ccccc2s1		29.1 µM [rising, single point]	
O=C(NC(Cc1ccccc1)C(=O)NC1CC1)OCc1ccccc1 (stereo not drawn)	-30%	6.51 µM [falling, single point]	3.66 µM [falling, full curve, poor fit]
O=C(Nc1nc(-c2ccccn2)cs1)c1ccc(-c2ccccc2F)o1	-63.1%	0.231 µM [falling, full curve, poor fit]	18.4 µM [falling, partial curve]
Cc1nc2ccccc2n1C1CC(=O)N(N(C)C)C1=O (stereo not drawn)	-11%	25.9 µM [falling, partial curve]	
N#CCSc1nc2ccccc2c(=O)n1CCC(=O)NC1CCCCC1	-23.7%	14.6 µM [falling, single point]	
Cc1ccc(N(C(=O)c2snc(C(N)=O)c2N)C(C(=O)NCC2CCCO2)c2c[nH]c3ccccc23)cc1 (stereo not drawn)	-16.7%	3.66 µM [falling, partial curve]	
Nc1c(/C=C2/C=CC(=O)C(O)=C2)c(=O)nc2sc(CC(=O)N3CCCC3)nn12	14.1%	29.1 µM [rising, single point]	
O=Cc1c(NCc2ccccc2Cl)c2ccccc2[nH]c1=O	-16.6%	29.1 µM [falling, single point]	
C=CCn1c(SCC(=O)Nc2cccnc2Cl)nnc1-c1ccccc1F	23.7%	4.61 µM [rising, partial curve, poor fit]	
O=C(CSC1=NC(=O)C(Cc2ccccc2)C(=O)N1)NC1CCCCC1 (stereo not drawn)	-25.1%	0.58 µM [falling, full curve]	0.0517 µM [falling, full curve, poor fit]

SMILES	cell number change	AC50 [1]	AC50 [2]
O=C(O)CCCCCNS(=O)(=O)c1cccc2c1C(=O)c1ccccc1C2=O	-20.1%	7.31 µM [falling, partial curve]	
C=CCNC(=S)NNC(=O)c1cc(O)ccc1O	-31.1%	16.4 µM [falling, single point]	
CCOc1ccc(N2CC(C(=O)NCc3ccccn3)CC2=O)cc1 (stereo not drawn)	21.4%	29.1 µM [rising, single point]	
CC(C)C(=O)NN(C(=O)C(C)C)c1nc2ccccc2s1	-53.4%		23.1 µM [falling, single point]
CCOC(=O)C1=C(c2ccccc2)NC(=O)NC1c1ccc(OC)cc1 (stereo not drawn)	14.1%		
O=C(CN(Cc1ccccc1Cl)C(=O)c1ccc(CN2CCOCC2)o1)NCC1CCCO1 (stereo not drawn)	-17%	6.51 µM [falling, partial curve, poor fit]	
Cc1ccc(C)c(N(CC(=O)N/N=C/c2ccc(-c3ccc([N+](=O)[O-])cc3)o2)S(=O)(=O)c2ccccc2)c1	-28.3%	8.2 µM [falling, partial curve]	
Cc1cc(OCC(=O)Nc2sc3c(c2C#N)CC(C)(C)NC3(C)C)c(C(C)C)cc1Cl	-9.73%		2.31 µM [rising, single point]
CCOc1ccc(NC(=O)CSc2nnc(-c3cc(C)[nH]n3)n2N)cc1	23.8%	29.1 µM [rising, single point]	
CCOC(=O)N1CCN(Cc2nc3cc(NC(=O)c4ccco4)ccc3n2CC)CC1	26.3%	0.00461 µM [rising, full curve, poor fit]	
COCCCN1C(=O)C(=O)/C(=C(/O)c2ccccc2)C1c1ccc2c(c1)OCO2 (stereo not drawn)	37.2%	25.9 µM [falling, partial curve, poor fit]	16.4 µM [rising, single point]
Cc1nn(CC(=O)N2CC(=O)Nc3ccccc32)c(C)c1[N+](=O)[O-]	25.7%	2.31 µM [rising, partial curve]	
CN(C)S(=O)(=O)c1ccc(C(=O)OCC(=O)c2csc(N3CCCCC3)n2)cc1	-4.82%		
O=C(NC1CCCCC1)n1c(=O)oc2ccc(Cl)cc21	-23.8%	1.46 µM [falling, partial curve]	
COc1cc(/C=C(/C(=O)c2cccs2)c2nc3ccccc3[nH]2)cc(OC)c1O	5.18%	2.59 µM [rising, full curve]	2.91 µM [rising, partial curve, poor fit]
O=S(=O)(c1ccc2c(c1)OCCO2)N1CCc2ccccc21	3.95%		
Cc1cc(C)n(C(=O)c2ccc(C)c(S(=O)(=O)N3CCOCC3)c2)n1	2.23%	5.17 µM [rising, partial curve, poor fit]	
COc1ccc(Cc2nnc(NC(=O)c3ccccc3F)s2)cc1OC	-18.4%	0.58 µM [rising, single point]	
